From article PMC5542435
Results are given in words; binding and its absence hold for the method and conditions named. Some results given as binding are weak or reduced against the parent protein; the word gives no strength. Tags and fused reporters may be left off the sequences shown.

Target: T1, FliP-3×FLAG (chromosomally encoded, expressed from the native fliP locus) (S. enterica serovar Typhimurium LT2) (UniProt P54700)
T1 sequence: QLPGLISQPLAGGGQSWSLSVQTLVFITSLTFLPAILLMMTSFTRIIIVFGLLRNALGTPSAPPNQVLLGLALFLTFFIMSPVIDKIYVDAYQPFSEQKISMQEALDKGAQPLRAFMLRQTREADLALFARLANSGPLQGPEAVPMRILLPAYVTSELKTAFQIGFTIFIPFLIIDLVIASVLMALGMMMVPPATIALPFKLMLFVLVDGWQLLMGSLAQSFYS
Test: native gel or EMSA; BN-PAGE (3%–12%) of crude membrane extracts solubilised in DDM, strain with chromosomal FliP-3×FLAG; FliP-containing complexes found by anti-FLAG Western blot, selected bands analysed by LC-MS/MS

B1: FliR (untagged, endogenous in S. Typhimurium) (protein, UniProt P54702 1-264)
chain: MIQVTSEQWLYWLHLYFWPLLRVLALISTAPILSERAIPKRVKLGLGIMITLVIAPSLPANDTPLFSIAALWLAMQQILIGIALGFTMQFAFAAVRTAGEFIGLQMGLSFATFVDPGSHLNMPVLARIMDMLAMLLFLTFNGHLWLISLLVDTFHTLPIGSNPVNSNAFMALARAGGLIFLNGLMLALPVITLLLTLNLALGLLNRMAPQLSIFVIGFPLTLTVGIMLMAALMPLIAPFCEHLFSEIFNLLADIVSEMPINNNP
binding: binds
